Results are given in words; binding and its absence hold for the method and conditions named. In cells and extracts the contact can be indirect. Some results given as binding are weak or reduced against the parent protein; the word gives no strength. Tags and fused reporters may be left off the sequences shown.
Tests used:
Assay in all cases: pull-down; HEK293T cells cotransfected with the SFB-tagged enzyme and Myc-tagged NME4 or mNME4; lysates in NETN buffer (20 mM Tris-HCl pH 8.0, 100 mM NaCl, 1 mM EDTA, 0.5% Nonidet P-40) incubated with S beads 2 h at 4 °C; blots with anti-Flag and anti-Myc
SFB-tagged ACSF3 (human) = biological target: T1, SFB-tagged ACSF3 (human) (UniProt Q4G176)
T1 sequence: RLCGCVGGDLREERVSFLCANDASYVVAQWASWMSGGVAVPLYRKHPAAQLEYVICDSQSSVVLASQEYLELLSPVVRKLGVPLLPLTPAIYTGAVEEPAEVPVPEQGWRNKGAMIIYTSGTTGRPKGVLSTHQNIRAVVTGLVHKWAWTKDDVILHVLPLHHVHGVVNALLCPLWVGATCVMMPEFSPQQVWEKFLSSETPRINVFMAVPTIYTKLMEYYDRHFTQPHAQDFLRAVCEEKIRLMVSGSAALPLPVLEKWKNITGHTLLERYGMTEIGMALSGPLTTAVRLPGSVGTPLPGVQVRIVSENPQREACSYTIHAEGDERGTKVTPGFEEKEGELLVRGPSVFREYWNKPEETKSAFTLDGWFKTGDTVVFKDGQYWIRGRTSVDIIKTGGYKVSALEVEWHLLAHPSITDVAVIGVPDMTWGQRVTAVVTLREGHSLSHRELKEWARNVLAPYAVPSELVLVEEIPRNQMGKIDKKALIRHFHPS

By UniProt entry, the sequences of proteins in these tests, tags left out. Residues count along the entry.
UniProt P13196, residues 57-640: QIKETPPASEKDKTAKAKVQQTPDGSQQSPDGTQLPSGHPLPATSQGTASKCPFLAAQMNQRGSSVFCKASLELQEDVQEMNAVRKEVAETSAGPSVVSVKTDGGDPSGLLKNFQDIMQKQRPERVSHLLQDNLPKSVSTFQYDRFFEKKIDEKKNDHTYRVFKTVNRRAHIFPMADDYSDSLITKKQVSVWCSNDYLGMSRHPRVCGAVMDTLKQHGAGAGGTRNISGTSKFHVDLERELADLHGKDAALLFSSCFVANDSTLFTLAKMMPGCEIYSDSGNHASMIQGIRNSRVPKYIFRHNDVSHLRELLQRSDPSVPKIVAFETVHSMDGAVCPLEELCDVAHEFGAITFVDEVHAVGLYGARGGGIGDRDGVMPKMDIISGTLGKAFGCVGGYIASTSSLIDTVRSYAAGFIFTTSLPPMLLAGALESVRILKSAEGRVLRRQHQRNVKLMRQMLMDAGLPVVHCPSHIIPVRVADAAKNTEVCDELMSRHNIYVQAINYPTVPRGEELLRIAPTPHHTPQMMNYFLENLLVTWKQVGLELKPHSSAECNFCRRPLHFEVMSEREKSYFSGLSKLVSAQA

SFB-tagged ALAS1 (human) = SFB-tagged ALAS1 (human) (UniProt P13196)
[1] = biological target: T2, SFB-tagged ALKBH7 (human) (UniProt Q9BT30)
T2 sequence: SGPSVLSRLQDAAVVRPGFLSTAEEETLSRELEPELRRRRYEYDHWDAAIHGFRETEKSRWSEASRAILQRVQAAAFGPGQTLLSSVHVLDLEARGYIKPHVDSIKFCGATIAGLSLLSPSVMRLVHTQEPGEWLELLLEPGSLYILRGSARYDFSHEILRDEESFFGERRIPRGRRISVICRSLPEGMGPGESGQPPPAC

SFB-tagged CRAT (human) = biological target: T3, SFB-tagged CRAT (human) (UniProt P43155)
T3 sequence: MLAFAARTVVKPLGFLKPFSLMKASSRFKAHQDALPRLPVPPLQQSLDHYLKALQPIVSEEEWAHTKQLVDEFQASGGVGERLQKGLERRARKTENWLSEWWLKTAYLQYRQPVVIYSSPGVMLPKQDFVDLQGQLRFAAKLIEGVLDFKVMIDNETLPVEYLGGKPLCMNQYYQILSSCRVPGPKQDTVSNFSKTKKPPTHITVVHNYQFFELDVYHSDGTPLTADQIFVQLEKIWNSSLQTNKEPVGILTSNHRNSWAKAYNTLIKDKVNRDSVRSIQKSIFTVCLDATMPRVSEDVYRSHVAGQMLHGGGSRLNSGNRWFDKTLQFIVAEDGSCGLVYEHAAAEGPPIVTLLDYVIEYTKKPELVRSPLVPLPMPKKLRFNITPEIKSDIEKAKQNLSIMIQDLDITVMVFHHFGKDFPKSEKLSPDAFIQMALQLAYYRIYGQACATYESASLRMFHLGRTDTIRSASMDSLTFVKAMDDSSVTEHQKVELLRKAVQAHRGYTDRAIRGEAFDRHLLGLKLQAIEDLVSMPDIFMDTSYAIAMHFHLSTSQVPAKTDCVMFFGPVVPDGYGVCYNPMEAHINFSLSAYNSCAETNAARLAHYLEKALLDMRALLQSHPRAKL

SFB-tagged MLYCD (human) = biological target: T4, SFB-tagged MLYCD (human) (UniProt O95822)
T4 sequence: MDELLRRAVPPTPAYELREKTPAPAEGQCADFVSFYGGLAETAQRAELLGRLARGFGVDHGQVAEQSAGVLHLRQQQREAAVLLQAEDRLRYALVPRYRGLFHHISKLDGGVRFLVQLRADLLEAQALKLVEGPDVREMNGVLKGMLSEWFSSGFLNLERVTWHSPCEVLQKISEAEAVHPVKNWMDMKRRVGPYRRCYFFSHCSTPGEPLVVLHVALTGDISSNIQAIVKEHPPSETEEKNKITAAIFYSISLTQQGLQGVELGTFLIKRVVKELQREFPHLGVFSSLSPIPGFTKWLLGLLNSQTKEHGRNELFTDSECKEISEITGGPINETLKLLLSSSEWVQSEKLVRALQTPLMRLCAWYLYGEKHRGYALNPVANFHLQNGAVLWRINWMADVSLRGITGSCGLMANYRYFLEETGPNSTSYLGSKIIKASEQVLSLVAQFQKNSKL

SFB-tagged MMUT (human) = biological target: T5, SFB-tagged MMUT (human) (UniProt P22033)
T5 sequence: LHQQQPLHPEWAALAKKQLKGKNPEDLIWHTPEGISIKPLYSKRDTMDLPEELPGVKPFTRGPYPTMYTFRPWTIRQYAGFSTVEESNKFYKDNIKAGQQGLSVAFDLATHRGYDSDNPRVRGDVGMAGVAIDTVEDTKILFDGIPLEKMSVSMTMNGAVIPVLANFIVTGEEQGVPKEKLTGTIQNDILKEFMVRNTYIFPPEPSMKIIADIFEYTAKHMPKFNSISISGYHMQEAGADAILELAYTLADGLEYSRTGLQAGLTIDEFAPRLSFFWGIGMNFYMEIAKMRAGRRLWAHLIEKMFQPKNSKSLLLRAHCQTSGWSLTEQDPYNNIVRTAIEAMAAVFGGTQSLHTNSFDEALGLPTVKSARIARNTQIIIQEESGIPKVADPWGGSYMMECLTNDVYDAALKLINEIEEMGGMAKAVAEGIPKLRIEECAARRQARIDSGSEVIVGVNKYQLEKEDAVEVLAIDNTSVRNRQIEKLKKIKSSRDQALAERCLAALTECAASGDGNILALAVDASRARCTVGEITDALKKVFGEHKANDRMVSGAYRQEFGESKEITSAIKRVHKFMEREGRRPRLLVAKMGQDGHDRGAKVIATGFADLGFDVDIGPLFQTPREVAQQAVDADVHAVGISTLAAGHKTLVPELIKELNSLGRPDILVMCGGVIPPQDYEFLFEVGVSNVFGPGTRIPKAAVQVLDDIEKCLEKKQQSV

[2] = biological target: T6, SFB-tagged NUDT19 (human) (UniProt A8MXV4)
T6 sequence: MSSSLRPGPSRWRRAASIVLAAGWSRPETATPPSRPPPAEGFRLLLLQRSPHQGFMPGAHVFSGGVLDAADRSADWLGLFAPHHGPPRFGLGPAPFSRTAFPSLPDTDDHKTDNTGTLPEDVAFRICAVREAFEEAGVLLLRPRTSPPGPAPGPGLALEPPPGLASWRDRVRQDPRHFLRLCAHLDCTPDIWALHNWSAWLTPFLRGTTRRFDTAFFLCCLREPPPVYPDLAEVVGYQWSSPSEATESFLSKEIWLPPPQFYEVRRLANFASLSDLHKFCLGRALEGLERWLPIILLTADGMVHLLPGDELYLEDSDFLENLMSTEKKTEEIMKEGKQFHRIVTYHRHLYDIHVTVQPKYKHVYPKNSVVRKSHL

Measured: binding

B1: Myc-tagged full-length NME4 (FL) (protein, UniProt O00746 29-187)
chain: GSGGPSWTRERTLVAVKPDGVQRRLVGDVIQRFERRGFTLVGMKMLQAPESVLAEHYQDLRRKPFYPALIRYMSSGPVVAMVWEGYNVVRASRAMIGHTDSAEAAPGTIRGDFSVHISRNVIHASDSVEGAQREIQLWFQSSELVSWADGGQHSSIHPA
binds: all assays above
